Consider one molecule from ChEMBL document CHEMBL3612028, “Design, synthesis, pharmacological evaluation and molecular dynamics of β-amino acids morphan-derivatives as novel ligands for opioid receptors” (Eur J Med Chem, 2015).

Chains of the proteins cited; added tags and fusions are not shown.
UniProt B8JHS2, whole entry: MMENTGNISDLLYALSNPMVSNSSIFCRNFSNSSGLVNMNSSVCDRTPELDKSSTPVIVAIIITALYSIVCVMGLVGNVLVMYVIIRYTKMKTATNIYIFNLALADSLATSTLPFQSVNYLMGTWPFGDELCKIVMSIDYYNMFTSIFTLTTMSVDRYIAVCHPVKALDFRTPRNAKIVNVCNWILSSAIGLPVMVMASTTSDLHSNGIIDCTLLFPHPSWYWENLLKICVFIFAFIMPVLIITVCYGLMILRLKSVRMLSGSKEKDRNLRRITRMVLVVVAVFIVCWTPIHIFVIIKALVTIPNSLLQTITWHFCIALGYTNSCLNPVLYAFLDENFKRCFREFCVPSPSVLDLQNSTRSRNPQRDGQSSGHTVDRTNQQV

This assay addresses Mu opioid receptor-like OR2 (Danio rerio, UniProt B8JHS2). Put plainly: Displacement of [3H]-diprenorphine from zebrafish mu opioid receptor expressed in HEK293 cells after 1 hr by liquid scintillation counting. Type of assay: cell-based.

Regarding `CN1CC[C@]23c4c5ccc(O)c4O[C@H]2[C@@H](O)C=C[C@H]3[C@H]1C5` [MORPHINE], the affinity, expressed as Ki, was 187 nM.

By Ki is commonly meant a dissociation constant, usually derived from enzyme kinetics or from competition with a known ligand. Lower therefore signals higher affinity.
